Test results as given in patent US20030144481A1.
These are yes or no findings as the source states them, for the method shown. For some assays here: In cells and extracts the contact can be indirect. Some results given as binding are weak or reduced against the parent protein; the word gives no strength.

By UniProt entry, the sequences of proteins in these tests, tags left out. Where a name states a change or a piece, a line headed by the entry shows the natural chain unless it says otherwise. Residues count along the entry.
UniProt Q9N0T5, residues 2-217: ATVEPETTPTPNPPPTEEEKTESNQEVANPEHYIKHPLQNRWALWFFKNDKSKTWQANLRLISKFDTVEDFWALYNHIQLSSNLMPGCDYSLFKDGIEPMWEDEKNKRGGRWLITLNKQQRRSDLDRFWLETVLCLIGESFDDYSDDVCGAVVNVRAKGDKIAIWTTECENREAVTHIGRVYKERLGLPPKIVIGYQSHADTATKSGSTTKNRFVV
UniProt P05556: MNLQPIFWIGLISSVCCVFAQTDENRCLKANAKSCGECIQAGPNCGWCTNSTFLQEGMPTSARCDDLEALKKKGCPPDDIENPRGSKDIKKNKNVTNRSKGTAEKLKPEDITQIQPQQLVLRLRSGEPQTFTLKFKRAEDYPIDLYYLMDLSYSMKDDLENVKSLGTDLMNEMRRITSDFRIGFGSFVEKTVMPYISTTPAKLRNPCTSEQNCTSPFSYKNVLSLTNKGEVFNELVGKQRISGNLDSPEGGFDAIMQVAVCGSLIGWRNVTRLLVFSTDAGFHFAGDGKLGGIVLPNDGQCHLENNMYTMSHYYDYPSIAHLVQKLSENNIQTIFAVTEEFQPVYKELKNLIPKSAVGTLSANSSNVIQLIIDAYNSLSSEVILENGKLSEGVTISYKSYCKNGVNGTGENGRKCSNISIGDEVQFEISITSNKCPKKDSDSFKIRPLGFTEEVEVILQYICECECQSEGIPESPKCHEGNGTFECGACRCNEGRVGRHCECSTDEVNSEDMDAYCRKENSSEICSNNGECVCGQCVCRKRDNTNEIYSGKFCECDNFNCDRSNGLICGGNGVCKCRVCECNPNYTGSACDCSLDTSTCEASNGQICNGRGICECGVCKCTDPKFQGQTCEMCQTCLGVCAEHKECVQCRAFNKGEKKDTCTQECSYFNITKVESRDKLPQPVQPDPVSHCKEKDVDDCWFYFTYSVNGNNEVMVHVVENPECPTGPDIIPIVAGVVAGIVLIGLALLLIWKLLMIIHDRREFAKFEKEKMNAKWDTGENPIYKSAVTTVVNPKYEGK
UniProt Q0P5A7, residues 2-118: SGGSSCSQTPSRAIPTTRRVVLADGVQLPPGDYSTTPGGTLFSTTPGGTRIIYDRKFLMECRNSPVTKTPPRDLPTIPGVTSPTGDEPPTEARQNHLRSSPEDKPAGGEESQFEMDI
UniProt Q01955: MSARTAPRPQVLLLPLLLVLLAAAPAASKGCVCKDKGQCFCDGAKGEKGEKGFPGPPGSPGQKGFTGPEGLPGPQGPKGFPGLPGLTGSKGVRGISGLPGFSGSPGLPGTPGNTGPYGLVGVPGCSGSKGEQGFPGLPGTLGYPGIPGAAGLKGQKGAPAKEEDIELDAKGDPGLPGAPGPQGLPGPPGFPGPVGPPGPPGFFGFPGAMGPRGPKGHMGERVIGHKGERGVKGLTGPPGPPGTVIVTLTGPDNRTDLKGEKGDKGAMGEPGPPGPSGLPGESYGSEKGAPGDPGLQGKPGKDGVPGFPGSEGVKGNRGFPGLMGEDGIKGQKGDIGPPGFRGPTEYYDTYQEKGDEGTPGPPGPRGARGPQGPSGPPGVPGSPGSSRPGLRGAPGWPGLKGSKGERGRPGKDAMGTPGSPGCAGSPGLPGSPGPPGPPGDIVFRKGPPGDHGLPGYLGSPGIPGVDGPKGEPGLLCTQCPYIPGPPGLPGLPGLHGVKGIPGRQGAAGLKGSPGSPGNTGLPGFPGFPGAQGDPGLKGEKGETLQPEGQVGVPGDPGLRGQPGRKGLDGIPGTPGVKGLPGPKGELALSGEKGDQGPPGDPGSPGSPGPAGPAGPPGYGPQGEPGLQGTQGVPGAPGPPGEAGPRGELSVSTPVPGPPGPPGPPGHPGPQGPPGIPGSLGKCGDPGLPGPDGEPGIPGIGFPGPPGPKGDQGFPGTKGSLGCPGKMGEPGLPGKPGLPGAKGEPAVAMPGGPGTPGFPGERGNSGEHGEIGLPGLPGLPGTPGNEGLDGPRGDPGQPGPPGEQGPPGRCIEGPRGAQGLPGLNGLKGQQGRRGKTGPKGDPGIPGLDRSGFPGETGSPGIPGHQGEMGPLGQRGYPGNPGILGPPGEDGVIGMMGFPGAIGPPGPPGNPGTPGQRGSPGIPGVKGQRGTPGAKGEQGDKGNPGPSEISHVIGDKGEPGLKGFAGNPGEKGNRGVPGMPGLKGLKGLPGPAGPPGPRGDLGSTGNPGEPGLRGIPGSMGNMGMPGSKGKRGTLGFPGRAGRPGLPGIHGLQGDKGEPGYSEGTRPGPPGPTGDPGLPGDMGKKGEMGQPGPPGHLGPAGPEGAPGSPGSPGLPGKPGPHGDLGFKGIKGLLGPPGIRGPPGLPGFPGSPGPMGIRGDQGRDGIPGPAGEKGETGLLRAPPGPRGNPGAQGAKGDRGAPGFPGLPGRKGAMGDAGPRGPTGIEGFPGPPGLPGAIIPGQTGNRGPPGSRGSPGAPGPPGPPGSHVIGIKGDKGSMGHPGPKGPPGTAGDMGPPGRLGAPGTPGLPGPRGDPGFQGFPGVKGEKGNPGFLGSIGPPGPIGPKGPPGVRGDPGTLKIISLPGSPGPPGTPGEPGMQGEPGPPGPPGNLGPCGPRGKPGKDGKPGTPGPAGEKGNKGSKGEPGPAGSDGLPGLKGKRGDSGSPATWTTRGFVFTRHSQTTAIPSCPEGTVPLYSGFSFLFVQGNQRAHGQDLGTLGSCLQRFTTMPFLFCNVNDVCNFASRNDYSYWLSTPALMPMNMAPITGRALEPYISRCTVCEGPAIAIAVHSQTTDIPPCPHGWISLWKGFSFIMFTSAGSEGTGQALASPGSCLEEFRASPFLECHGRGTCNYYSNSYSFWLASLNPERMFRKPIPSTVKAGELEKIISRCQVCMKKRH

Experiments:
[1] = molecular target: eIF4E in C-PAE cell lysate (bovine) (UniProt Q9N0T5); assay: 7-methyl-GTP-Sepharose pull-down from C-PAE lysates after T3 or Tumstatin-45-132 treatment, immunoblot
[2] = molecular target: integrin β1 subunit on HUVEC cells (human) (UniProt P05556); assay: cell attachment assay (HUVEC or C-PAE) with blocking antibodies

binding [1]	binding [2]	Substance
binds	–	4E-BP1 in C-PAE cell lysate (from UniProt Q0P5A7 2-118)
–	binds	Tumstatin-45-132 (E. coli-expressed) (from UniProt Q01955 1471-1558) (ligand)
